From US5409950A, “Cyclic ketal derivatives” (Glaxo Group Limited, priority 1991, dated 1995)

Target: T1, squalene synthase (Rattus norvegicus, UniProt Q02769)
T1 construct: incubating rat liver homogenate with various concentrations of the test compound; from tissue; host or cells: rat liver homogenate
T1 sequence (Q02769 1-416): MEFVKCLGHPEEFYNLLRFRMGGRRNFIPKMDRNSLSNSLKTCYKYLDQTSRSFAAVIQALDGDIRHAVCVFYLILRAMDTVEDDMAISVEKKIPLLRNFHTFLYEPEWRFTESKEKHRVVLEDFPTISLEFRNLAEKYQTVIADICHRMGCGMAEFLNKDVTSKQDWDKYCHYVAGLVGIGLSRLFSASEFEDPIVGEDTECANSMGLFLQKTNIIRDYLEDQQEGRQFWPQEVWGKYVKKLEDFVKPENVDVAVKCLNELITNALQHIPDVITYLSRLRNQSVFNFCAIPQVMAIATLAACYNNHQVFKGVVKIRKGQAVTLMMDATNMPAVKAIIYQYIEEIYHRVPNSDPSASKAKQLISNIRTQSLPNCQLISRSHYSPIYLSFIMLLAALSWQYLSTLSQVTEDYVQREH
Assay: Inhibition of squalene synthase in rat liver homogenate
Assay type: biochemical
Method: Acta, Volume 877, 50-60 (1986) and modified to include measurement of cholesterol by high performance liquid chromatography (h.p.l.c.).
[^14 C] Squalene was separated from unreacted substrate on thin layer chromatography plates and determined by liquid scintillation counting. Inhibition of squalene synthase was quantified by incubating rat liver homogenate with various concentrations of the test compound in the presence of [2-^14 C] farnesylpyrophosphate. The concentration of compound giving 50% inhibition of [^14 C] squalene production in a 30 minute assay was taken as the IC50 value.

Question: How did the IC50 turn out when C=C(CC[C@]12O[C@H](C(=O)O)[C@@](O)(C(=O)O)[C@](C(=O)O)(O1)[C@H](O)[C@H]2O)[C@@H](OC(C)=O)[C@H](C)Cc1ccccc1 (relative stereo) [Compound C, [1S-]1α(4R*,5S*),3α,4β,5α,6α,7β]]1-(4-acetyloxy-5-methyl-3-methylene-6-phenylhexyl)-4,6,7-trihydroxy-2,8-dioxabicyclo[3.2.1]octane-3,4,5-tricarboxylic acid] was run?
Answer: < 100 nM
